Some entries share one result that the patent states for a list of compounds.
Key:
Assay type in all cases: in vivo
[1] = tested on: Tobacco Budworm (Heliothis virescens); test: Tobacco budworm (Heliothis virescens) I cotton plant spray test; settings: at 2500 ppm; budworm larvae on sprayed cotton plants; 4 days after treatment
[2] = tested on: vetch aphid (Megoura viciae); test: Vetch aphid (Megoura viciae) broad bean leaf disk test; settings: at 2500 ppm; adult aphids on sprayed leaf disks; 5 days
[3] = tested on: Cowpea Aphid (Aphis craccivora); test: Cowpea aphid (Aphis craccivora) spray test on potted cowpea plants; settings: at 300 ppm; sprayed cowpea plants; population reduction assessed after 24, 72 and 120 hours
[4] = tested on: Diamond Back Moth (plutella xylostella); test: Diamond back moth (plutella xylostella) cabbage leaf dip test; settings: at 500 ppm; dipped cabbage leaves, 3rd instar larvae; 72 hours after treatment
[5] = tested on: Orchid Thrips (dichromothrips corbetti); test: Orchid thrips (dichromothrips corbetti) floral-immersion test; settings: at 300 ppm; adult thrips on dipped orchid flowers; after 4 days
[6] = tested on: Green Peach Aphid (Myzus persicae); test: Green peach aphid (Myzus persicae) bell pepper plant spray test; settings: at 500 ppm; aphids on sprayed bell pepper plants; after 5 days
[7] = tested on: Rice Green Leafhopper (Nephotettix virescens); test: Rice green leafhopper (Nephotettix virescens) rice seedling spray test; settings: at 500 ppm; adults on sprayed rice seedlings; after 72 hours
[8] = tested on: Rice Brown Plant Hopper (Nilaparvata lugens); test: Rice brown plant hopper (Nilaparvata lugens) rice seedling spray test; settings: at 500 ppm; adults on sprayed rice seedlings; after 72 hours
[9] = tested on: Silverleaf Whitefly (Bemisia argentifolii); test: Silverleaf whitefly (Bemisia argentifolii) cotton plant spray test; settings: at 500 ppm; whitefly adults on sprayed cotton plants; 3 days after treatment
[10] = tested on: Mediterranean fruitfly (Ceratitis capitata); test: Mediterranean fruitfly (Ceratitis capitata) microtiter plate diet test; settings: at 2500 ppm; egg and larval mortality after 5 days
[11] = tested on: boll weevil (Anthonomus grandis); test: Boll weevil (Anthonomus grandis) microtiter plate diet test; settings: at 2500 ppm; egg and larval mortality after 5 days

SMILES	mortality in comparison with untreated controls [1]	mortality in comparison with untreated controls [2]	mortality in comparison with untreated controls [3]	mortality in comparison with untreated controls [8]	other results
CN(O)C(=N)c1cccc(-c2c([O-])[n+](Cc3ccc(Cl)nc3)c3ccccn3c2=O)c1 [Compound 1]	at least 75%				
NC(=NO)c1cccc(-c2c([O-])[n+](Cc3ccc(Cl)nc3)c3ccccn3c2=O)c1 [Compound 2]		at least 75%			
CC(=O)ONC(=N)c1cccc(-c2c([O-])[n+](Cc3ccc(Cl)nc3)c3ccccn3c2=O)c1 [Compound 3]		at least 75%	at least 75%	at least 75%	mortality in comparison with untreated controls [4]: at least 75%; mortality in comparison with untreated controls [5]: at least 75%; mortality in comparison with untreated controls [6]: at least 75%; mortality in comparison with untreated controls [7]: at least 75%
CC(C)C(=O)ONC(=N)c1cccc(-c2c([O-])[n+](Cc3ccc(Cl)nc3)c3ccccn3c2=O)c1 [Compound 4]		at least 75%	at least 75%		mortality in comparison with untreated controls [5]: at least 75%; mortality in comparison with untreated controls [7]: at least 75%
N=C(NOC(=O)C1CC1)c1cccc(-c2c([O-])[n+](Cc3ccc(Cl)nc3)c3ccccn3c2=O)c1 [Compound 5]		at least 75%		at least 75%	mortality in comparison with untreated controls [7]: at least 75%
CCONC(=N)c1cccc(-c2c([O-])[n+](Cc3ccc(Cl)nc3)c3ccccn3c2=O)c1 [Compound 6]				at least 75%	
C=CCONC(=N)c1cccc(-c2c([O-])[n+](Cc3ccc(Cl)nc3)c3ccccn3c2=O)c1 [Compound 7]			at least 75%		
CN(C)C(=NO)c1cccc(-c2c([O-])[n+](Cc3ccc(Cl)nc3)c3ccccn3c2=O)c1 [Compound 8]		at least 75%		at least 75%	
CNC(=NO)c1cccc(-c2c([O-])[n+](Cc3ccc(Cl)nc3)c3ccccn3c2=O)c1 [Compound 9]		at least 75%		at least 75%	mortality in comparison with untreated controls [7]: at least 75%
CNC(=NOC)c1cccc(-c2c([O-])[n+](Cc3ccc(Cl)nc3)c3ccccn3c2=O)c1 [Compound 12]		at least 75%	at least 75%	at least 75%	mortality in comparison with untreated controls [9]: at least 75%; mortality in comparison with untreated controls [7]: at least 75%
CON=C(Nc1ccccc1)c1cccc(-c2c([O-])[n+](Cc3ccc(Cl)nc3)c3ccccn3c2=O)c1 [Compound 13]		at least 75%			
CON=C(c1cccc(-c2c([O-])[n+](Cc3cnc(Cl)s3)c3c(C)cccn3c2=O)c1)N1CCCC1 [Compound 15]		at least 75%			mortality in comparison with untreated controls [10]: at least 75%; mortality in comparison with untreated controls [11]: at least 75%
CC(C)(C)N(O)C(=O)c1cccc(-c2c([O-])[n+](Cc3ccc(Cl)nc3)c3ccccn3c2=O)c1 [Compound 17]	at least 75%	at least 75%			mortality in comparison with untreated controls [10]: at least 75%; mortality in comparison with untreated controls [11]: at least 75%
CC(C)N(O)C(=O)c1cccc(-c2c([O-])[n+](Cc3ccc(Cl)nc3)c3ccccn3c2=O)c1 [Compound 18]		at least 75%			mortality in comparison with untreated controls [11]: at least 75%
CCN(O)C(=O)c1cccc(-c2c([O-])[n+](Cc3ccc(Cl)nc3)c3ccccn3c2=O)c1 [Compound 19]			at least 75%		
O=C(NOCC(F)(F)F)c1cccc(-c2c([O-])[n+](Cc3ccc(Cl)nc3)c3ccccn3c2=O)c1 [Compound 21]	at least 75%				
N=C(NO)c1ccc(-c2c([O-])[n+](Cc3ccc(Cl)nc3)c3ccccn3c2=O)cc1 [Compound 22]		at least 75%	at least 75%	at least 75%	mortality in comparison with untreated controls [6]: at least 75%; mortality in comparison with untreated controls [7]: at least 75%
CN(O)C(=N)c1ccc(-c2c([O-])[n+](Cc3ccc(Cl)nc3)c3ccccn3c2=O)cc1 [Compound 23]	at least 75%	at least 75%	at least 75%	at least 75%	mortality in comparison with untreated controls [10]: at least 75%; mortality in comparison with untreated controls [9]: at least 75%; mortality in comparison with untreated controls [11]: at least 75%; mortality in comparison with untreated controls [6]: at least 75%; mortality in comparison with untreated controls [7]: at least 75%
CCONC(=N)c1ccc(-c2c([O-])[n+](Cc3ccc(Cl)nc3)c3ccccn3c2=O)cc1 [Compound 24]		at least 75%	at least 75%		mortality in comparison with untreated controls [6]: at least 75%
C=CCONC(=N)c1ccc(-c2c([O-])[n+](Cc3ccc(Cl)nc3)c3ccccn3c2=O)cc1 [Compound 25]		at least 75%			mortality in comparison with untreated controls [6]: at least 75%
CN(C)C(=NO)c1ccc(-c2c([O-])[n+](Cc3ccc(Cl)nc3)c3ccccn3c2=O)cc1 [Compound 32]	at least 75%				mortality in comparison with untreated controls [10]: at least 75%
CNC(=NO)c1ccc(-c2c([O-])[n+](Cc3ccc(Cl)nc3)c3ccccn3c2=O)cc1 [Compound 33]				at least 75%	
CCNC(=NO)c1ccc(-c2c([O-])[n+](Cc3ccc(Cl)nc3)c3ccccn3c2=O)cc1 [Compound 34]	at least 75%	at least 75%		at least 75%	
CCCNC(=NO)c1ccc(-c2c([O-])[n+](Cc3ccc(Cl)nc3)c3ccccn3c2=O)cc1 [Compound 36]	at least 75%	at least 75%		at least 75%	
O=c1c(-c2ccc(C(=NO)NCCC(F)(F)F)cc2)c([O-])[n+](Cc2ccc(Cl)nc2)c2ccccn12 [Compound 37]	at least 75%			at least 75%	
CON=C(NCC(F)(F)F)c1ccc(-c2c([O-])[n+](Cc3ccc(Cl)nc3)c3ccccn3c2=O)cc1 [Compound 39]		at least 75%	at least 75%		mortality in comparison with untreated controls [5]: at least 75%
CCN(O)C(=O)c1ccc(-c2c([O-])[n+](Cc3ccc(Cl)nc3)c3ccccn3c2=O)cc1 [Compound 46]	at least 75%				
CCONC(=O)c1ccc(-c2c([O-])[n+](Cc3ccc(Cl)nc3)c3ccccn3c2=O)cc1 [Compound 47]	at least 75%				
O=C(NOCC(F)(F)F)c1ccc(-c2c([O-])[n+](Cc3ccc(Cl)nc3)c3ccccn3c2=O)cc1 [Compound 48]	at least 75%	at least 75%			
CC(C)(C)N(O)C(=O)c1ccc(-c2c([O-])[n+](Cc3ccc(Cl)nc3)c3ccccn3c2=O)cc1 [Compound 49]	at least 75%				

— patent US9179680B2, “Substituted pyrimidinium compounds for combating animal pests” (BASF SE, priority 2011, dated 2015)
